Measurements reported in US5278174A, “Sigma binding site agents” (priority 1991, dated 1994).
For at least one compound, name, drawing or mass did not settle the structure.

Molecular target: sigma sites
Test: Sigma receptor binding assay, [3H]DTG
Settings: 5 nM [3H]DTG; guinea pig whole brain; room temperature, 45 minutes; read-out: Receptor Potency Sigma DTG (IC50, nMol)
Experimental: Two selective sigma receptor ligands, [^3 H](+)-3-[3-hydroxyphenyl]-N-(1 propyl)piperidine [(+)-3-PPP] and [^3 H] Ditolylguanidine (DTG), were used to label sigma sites in brain tissue.
The tissue preparation and assay conditions employed when using either of these ligands were essentially the same. Frozen whole guinea pig brains (obtained from Pel-Freez, Rogers, Ariz.) were homogenized in 10 volumes of ice-cold 0.32M sucrose. The resulting pellet was resuspended in 10 volumes of ice-cold 50 mM Tris-HCl (pH 7.4), incubated at 37 ° C. for 30 minutes, and centrifuged at 22,000 × g for 20 minutes. The final tissue suspension was made in 50 mM Tris-HCl (pH 7.4) to a concentration of 20 mg original wet weight/mL. 800 μL of tissue suspension was added to tubes containing 5 nM [^3 H] DTG or 4 nM [^3 H] […] The final assay volume was 1 mL. The assay tubes were gently vortexed, and the binding reaction was carried out for 45 minutes at room temperature. The reaction was terminated by rapid filtration over Whatman GF/B glass fiber filters, which were then rinsed 3x with 5 mL of 50 mM Tris-HCl. Filter bound radioactivity was quantified using liquid scintillation spectrometry.

## O=c1cc(-c2ccccc2)oc2cc(OCCCCCCN3CCC(O)CC3)ccc12 [Example 37, 7-[6-(4-Hydroxypiperidinyl)hexoxy]-2-phenyl-4H-1-benzopyran-4-one]
  IC50: 45 nM
